{
  "sequences": {"note": "The chains behind the UniProt entries cited, without tags or fusion partners.", "UniProt P08047": "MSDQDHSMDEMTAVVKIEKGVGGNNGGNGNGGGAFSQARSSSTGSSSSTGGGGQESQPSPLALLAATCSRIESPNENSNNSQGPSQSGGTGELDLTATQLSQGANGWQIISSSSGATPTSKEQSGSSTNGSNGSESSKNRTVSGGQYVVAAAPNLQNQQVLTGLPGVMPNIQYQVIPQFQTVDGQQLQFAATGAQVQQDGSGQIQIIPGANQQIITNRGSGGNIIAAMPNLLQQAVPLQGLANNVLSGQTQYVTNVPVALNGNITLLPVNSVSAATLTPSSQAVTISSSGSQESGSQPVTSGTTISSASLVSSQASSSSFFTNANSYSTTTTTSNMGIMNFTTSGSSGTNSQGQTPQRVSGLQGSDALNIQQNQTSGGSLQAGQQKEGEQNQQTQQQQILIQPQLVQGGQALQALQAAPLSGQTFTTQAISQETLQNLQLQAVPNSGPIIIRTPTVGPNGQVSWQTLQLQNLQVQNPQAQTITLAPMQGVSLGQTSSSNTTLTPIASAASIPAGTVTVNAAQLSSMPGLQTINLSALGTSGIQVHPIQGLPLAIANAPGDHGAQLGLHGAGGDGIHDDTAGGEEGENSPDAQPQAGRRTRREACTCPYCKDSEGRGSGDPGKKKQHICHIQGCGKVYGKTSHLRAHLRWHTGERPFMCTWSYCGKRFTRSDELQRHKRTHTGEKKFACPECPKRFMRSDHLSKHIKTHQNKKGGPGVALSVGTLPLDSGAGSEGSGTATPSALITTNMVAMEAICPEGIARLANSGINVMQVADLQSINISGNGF", "UniProt P84022": "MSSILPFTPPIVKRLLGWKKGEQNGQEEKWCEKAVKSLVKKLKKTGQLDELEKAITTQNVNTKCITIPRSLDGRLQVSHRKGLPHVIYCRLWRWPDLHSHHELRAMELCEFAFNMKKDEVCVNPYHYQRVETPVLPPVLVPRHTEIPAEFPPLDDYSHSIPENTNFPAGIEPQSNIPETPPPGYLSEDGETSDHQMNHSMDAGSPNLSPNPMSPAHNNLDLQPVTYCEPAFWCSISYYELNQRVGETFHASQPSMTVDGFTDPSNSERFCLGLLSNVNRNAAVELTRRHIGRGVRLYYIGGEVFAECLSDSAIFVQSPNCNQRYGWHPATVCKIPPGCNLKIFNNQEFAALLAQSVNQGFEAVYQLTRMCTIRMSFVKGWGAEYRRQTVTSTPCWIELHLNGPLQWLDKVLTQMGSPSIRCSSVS"},
  "source": "paper doi:10.1101/2023.10.07.561349",
  "target": "SP1 (human (endogenous in THP-1)) (UniProt P08047)",
  "test": "proximity ligation",
  "note": "No constants are given. Whether binding was seen depends on the method and setting. In cells and extracts the contact can be indirect. Some results given as binding are weak or reduced against the parent protein; the word gives no strength.",
  "data": [
    {"substance": "SMAD3 (from UniProt P84022 1-425)", "values": [
      {"measurement": "binding", "value": "binds"}
    ]}
  ]
}
